Experimental data published in patent US20090252716A1, “METHODS FOR IDENTIFYING NUCLEAR RECEPTOR/LIGAND COMBINATIONS FOR TARGETING BRAIN TUMOR STEM CELLS AND FOR THEIR USE” (Clarian Health Partners, Inc. d/b/a Methodist Research …, priority 2008, published 2009).
For at least one compound, name, drawing or mass did not settle the structure.

Tests used:
[1] = test system: U87MG and T98G human glioma cells, their respective BTSC's, and CD133+ cells; assay: Proliferation of glioma cells, BTSC's and CD133+ cells, result in words; type: cell-based
Description: The use of nuclear receptor agonists in the treatment of brain tumors was examined by testing the effect of the specific ligands on the proliferation of brain tumor and BTSC'S. Prior to studying the anti-tumor effect of melatonin, it was necessary to determine the viability of glioma and BTSC's in the cultures used in this study. […] Their proliferation was measured by WST-1 assay. The ligands for all six nuclear receptors induced anti-proliferative activity in brain tumor stem cells as well as human glioma cells. […]
Proliferation assay. Proliferation of gliosphere cells was measured using WST-1 assay (Roche Applied Sciences, Indianapolis, Ind.) and ^3H thymidine uptake assay. […] After 48 hrs, WST-1 reagent ([…]) was added and the absorbance was measured at 460 nm using 2100 microplate reader (Alpha Diagnostics Inc., San Antonio, Tex.) as a measure of viable cell count. […] In some experiments, ^3H thymidine (0.5 μCi/ml) was added at 48 hours, the cells harvested after 72 hours using a Tomtech harvester 96 (Hamden, Conn., USA) and the amount of ^3H thymidine uptake counted on a Perkin Elmer Microbeta liquid scintillation counter to provide a measure of proliferation.

[2] = test system: T98G tumorspheres; assay: Tumorsphere formation from T98G glioblastoma cells in NBM; type: cell-based, human; settings: NBM with B27, EGF+bFGF
Description: Initially culture conditions were established for expanding BTSC's as tumorspheres from brain tumor cells in culture. […] The resulting tumorspheres increased substantially in size within 7 to 10 days. FIG. 1 illustrates typical glioblastoma cells cultured in DMEM supplemented with 10% FBS and the corresponding tumorspheres cultured in neurobasal medium (NBM) with B27 supplement and 10 ng/ml EGF+bFGF. The tumorspheres illustrated in FIG. 1 were photographed after 10 days (200×).
Gliosphere culture. To generate gliospheres, the following standardized method was utilized. Briefly, U87MG and T98G glioblastoma cells were dissociated from DMEM cultures using trypsin-EDTA solution and reseeded in neurobasal medium (NBM) supplemented with B27 in the presence of 10 ng/ml bFGF and EGF. The cells (5×10^4/ml/well) were cultured in 12 well plates in 5% CO2-incubator at 37° C. with a medium change of every 2-3 days. The cells were photographed (200× and 400×) under phase contrast microscope (AX70, Olympus Optical, Japan) after 10-12 days. The primary human glioblastoma cells were also dissociated from DMEM using trypsin-EDTA. The cells were cultured (1×10^5 cells/ml/well) in neurobasal medium (NBM) supplemented with B27 in the presence of 10 ng/ml of bFGF and EGF in 12 well plates in 5% CO2-incubator at 37° C. The resulting tumorspheres were photographed under light microscope.

CO[C@H]1/C=C/O[C@@]2(C)Oc3c(C)c(O)c4c(O)c(c(/C=N/N5CCN(C)CC5)c(O)c4c3C2=O)NC(=O)/C(C)=C\C=C\[C@H](C)[C@H](O)[C@@H](C)[C@@H](O)[C@@H](C)[C@H](OC(C)=O)[C@@H]1C [Rifampicin]
proliferation of glioma cells and BTSC's [1]: inhibit the proliferation
number and size of T98G tumorspheres [2]: capable of inhibiting tumorsphere formation
